Experimental data: patent publication US10563263B2, “Genetic polymorphisms associated with statin response and cardiovascular diseases, methods of detection and uses thereof” (CELERA CORPORATION, priority 2010, dated 2020)
The source gives many values for each of these; only a part stands here.

Tested on: revascularization, unstable angina requiring hospitalization, MI, all causes of death, or stroke
Assay: PROVE IT-TIMI 22: SNP by treatment interaction (high-dose atorvastatin vs standard-dose pravastatin), logistic regression (synergy index), primary composite endpoint
Format: in vivo, human

CC(C)c1c(C(=O)Nc2ccccc2)c(-c2ccccc2)c(-c2ccc(F)cc2)n1CC[C@@H](O)C[C@@H](O)CC(=O)O [Atorvastatin, atorvastatin]
OR (rs7762993 allele A model DOM Imputed, ATORVA vs PRAVA): 1.079 | OR (rs7771264 allele T model DOM Imputed, ATORVA vs PRAVA): 1.051 | OR (rs7795792 allele T model REC Imputed, ATORVA vs PRAVA): 0.659 | OR (rs7806481 allele G model REC Imputed, ATORVA vs PRAVA): 1.465 | OR (rs7814819 allele G model ADD Imputed, ATORVA vs PRAVA): 2.296 | OR (rs7814819 allele G model DOM Imputed, ATORVA vs PRAVA): 2.549 | OR (rs7815952 allele T model DOM Imputed, ATORVA vs PRAVA): 1.182 | OR (rs7834090 allele T model DOM Imputed, ATORVA vs PRAVA): 1.182 | OR (rs7859250 allele C model DOM Imputed, ATORVA vs PRAVA): 1.184 | OR (rs7863577 allele A model ADD Genotyped, ATORVA vs PRAVA): 1.029 | OR (rs7863577 allele A model DOM Genotyped, ATORVA vs PRAVA): 0.9475 | OR (rs7902140 allele C, ADD model, Imputed, atorvastatin vs pravastatin): 0.9423 | OR (rs7921834 allele C, DOM model, Imputed, atorvastatin vs pravastatin): 1.347 | OR (rs7939893 allele C, ADD model, Imputed, atorvastatin vs pravastatin): 0.6916 | OR (rs7939893 allele C, DOM model, Imputed, atorvastatin vs pravastatin): 0.506 | OR (rs7955901 allele C, ADD model, Imputed, atorvastatin vs pravastatin): 0.7285 | OR (rs7955901 allele C, DOM model, Imputed, atorvastatin vs pravastatin): 0.7139 | OR (rs7956274 allele T, ADD model, Imputed, atorvastatin vs pravastatin): 0.7156 | OR (rs7956274 allele T, DOM model, Imputed, atorvastatin vs pravastatin): 0.7031 | OR (rs7957932 allele G, ADD model, Imputed, atorvastatin vs pravastatin): 0.7234 | OR (rs7957932 allele G, DOM model, Imputed, atorvastatin vs pravastatin): 0.6888 | OR (rs7984294 allele A, DOM model, Imputed, atorvastatin vs pravastatin): 2.115 | OR (rs7994286 allele A, ADD model, Imputed, atorvastatin vs pravastatin): 1.764 | OR (rs7994286 allele A, DOM model, Imputed, atorvastatin vs pravastatin): 1.796 | OR (rs8038229 allele A, ADD model, Genotyped, atorvastatin vs pravastatin): 0.6909 | OR (rs8038229 allele A, DOM model, Genotyped, atorvastatin vs pravastatin): 0.666 | OR (rs8043336 allele C, REC model, Imputed, atorvastatin vs pravastatin): 0.9456 | OR (rs8054431 allele T, DOM model, Imputed, atorvastatin vs pravastatin): 1.148 | OR (rs8066502 allele T, DOM model, Imputed, atorvastatin vs pravastatin): 0.5122 | OR (rs8068714 allele T, DOM model, Imputed, atorvastatin vs pravastatin): 0.5127 | OR (rs9301653 allele T, ADD model, Imputed, atorvastatin vs pravastatin): 1.725 | OR (rs9301653 allele T, DOM model, Imputed, atorvastatin vs pravastatin): 1.754 | OR (rs9309988 allele G, DOM model, Imputed, atorvastatin vs pravastatin): 0.8286 | OR (rs9309989 allele C, DOM model, Genotyped, atorvastatin vs pravastatin): 0.771 | OR (rs9310221 allele A, DOM model, Imputed, atorvastatin vs pravastatin): 0.8966 | OR (rs9327555 allele T, DOM model, Imputed, atorvastatin vs pravastatin): 0.5934 | OR (rs9454967 allele G, ADD model, Imputed, atorvastatin vs pravastatin): 0.982 | OR (rs9454967 allele G, DOM model, Imputed, atorvastatin vs pravastatin): 0.9744 | OR (rs9471295 allele T, DOM model, Imputed, atorvastatin vs pravastatin): 1.784 | OR (rs9477007 allele A, ADD model, Imputed, atorvastatin vs pravastatin): 1.012 | OR (rs9487279 allele T, DOM model, Imputed, atorvastatin vs pravastatin): 1.094 | OR (rs9555973 allele G, ADD model, Imputed, atorvastatin vs pravastatin): 1.732 | OR (rs9555973 allele G, DOM model, Imputed, atorvastatin vs pravastatin): 1.761 | OR (rs9557510 allele G, ADD model, Imputed, atorvastatin vs pravastatin): 1.342 | OR (rs9557510 allele G, DOM model, Imputed, atorvastatin vs pravastatin): 1.316 | OR (rs9560584 allele T, DOM model, Imputed, atorvastatin vs pravastatin): 1.792 | OR (rs9588770 allele T, DOM model, Imputed, atorvastatin vs pravastatin): 1.714 | OR (rs9588848 allele C, ADD model, Imputed, atorvastatin vs pravastatin): 1.725 | OR (rs9588848 allele C, DOM model, Imputed, atorvastatin vs pravastatin): 1.754 | OR (rs9812206 allele G, ADD model, Imputed, atorvastatin vs pravastatin): 1.042 | OR (rs9812206 allele G, DOM model, Imputed, atorvastatin vs pravastatin): 1.042 | OR (rs9813552 allele G, ADD model, Imputed, atorvastatin vs pravastatin): 1.042 | OR (rs9813552 allele G, DOM model, Imputed, atorvastatin vs pravastatin): 1.077 | OR (rs9815037 allele T, ADD model, Imputed, atorvastatin vs pravastatin): 1.048 | OR (rs9815037 allele T, DOM model, Imputed, atorvastatin vs pravastatin): 1.083 | OR (rs9825349 allele A, ADD model, Imputed, atorvastatin vs pravastatin): 1.048 | OR (rs9825349 allele A, DOM model, Imputed, atorvastatin vs pravastatin): 1.083 | OR (rs9834217 allele T, ADD model, Imputed, atorvastatin vs pravastatin): 1.017 | OR (rs9834217 allele T, DOM model, Imputed, atorvastatin vs pravastatin): 1.049 | OR (rs9840460 allele T, ADD model, Imputed, atorvastatin vs pravastatin): 1.017 | OR (rs9840460 allele T, DOM model, Imputed, atorvastatin vs pravastatin): 1.049 | OR (rs9840756 allele A, ADD model, Imputed, atorvastatin vs pravastatin): 0.9995 | OR (rs9840756 allele A, DOM model, Imputed, atorvastatin vs pravastatin): 1.031 | OR (rs9844801 allele C, DOM model, Imputed, atorvastatin vs pravastatin): 0.8286 | OR (rs9869187 allele C, ADD model, Imputed, atorvastatin vs pravastatin): 1.037 | OR (rs9869187 allele C, DOM model, Imputed, atorvastatin vs pravastatin): 1.037 | OR (rs9872327 allele T, DOM model, Imputed, atorvastatin vs pravastatin): 0.8286 | OR (rs9881685 allele A, ADD model, Imputed, atorvastatin vs pravastatin): 1.041 | OR (rs9881685 allele A, DOM model, Imputed, atorvastatin vs pravastatin): 1.041 | OR (rs9909499 allele C, DOM model, Imputed, atorvastatin vs pravastatin): 1.716 | OR (rs9911847 allele G, DOM model, Imputed, atorvastatin vs pravastatin): 0.5127 | OR (rs9958823 allele A, ADD model, Imputed, atorvastatin vs pravastatin): 1.083 | OR (rs9965248 allele T, ADD model, Imputed, atorvastatin vs pravastatin): 1.002 | OR (rs10021016, allele G, REC, Genotyped, atorvastatin vs pravastatin): 2.482 | OR (rs10046799, allele C, ADD, Imputed): 0.7946 | OR (rs10051148, allele C, DOM, Imputed): 0.6399 | OR (rs10051148, allele C, DOM, Imputed, atorvastatin vs pravastatin): 0.6399 | OR (rs10054055, allele T, DOM, Imputed): 0.5872 | OR (rs10054055, allele T, DOM, Imputed, atorvastatin vs pravastatin): 0.5872 | OR (rs10067895, allele A, DOM, Imputed): 0.577 | OR (rs10067895, allele A, DOM, Imputed, atorvastatin vs pravastatin): 0.577 | OR (rs10100725, allele C, DOM, Imputed, atorvastatin vs pravastatin): 1.055 | OR (rs10105871, allele C, DOM, Imputed): 1.492 | OR (rs10116807, allele A, REC, Imputed): 2.869 | OR (rs10121941, allele C, DOM, Imputed): 1.177 | OR (rs10128531, allele T, ADD, Imputed, atorvastatin vs pravastatin): 1.662 | OR (rs10128638, allele G, DOM, Genotyped): 0.6667 | OR (rs10181743, allele G, ADD, Imputed, atorvastatin vs pravastatin): 1.137 | OR (rs10195401, allele C, DOM, Imputed): 1.047 | OR (rs10199127, allele T, DOM, Imputed, atorvastatin vs pravastatin): 1.032 | OR (rs10239416, allele A, DOM, Imputed): 1.361 | OR (rs10430870, allele G, REC, Genotyped, atorvastatin vs pravastatin): 3.43 | OR (rs10468988, allele G, ADD, Imputed): 1.083 | OR (rs10469597, allele A, REC, Imputed, atorvastatin vs pravastatin): 1.249 | OR (rs10478919, allele G, DOM, Imputed): 0.593 | OR (rs10478919, allele G, DOM, Imputed, atorvastatin vs pravastatin): 0.593 | OR (rs10506623, allele C, ADD, Imputed, atorvastatin vs pravastatin): 0.7806 | OR (rs10506623, allele C, DOM, Imputed): 0.7185 | OR (rs10506623, allele C, DOM, Imputed, atorvastatin vs pravastatin): 0.7185 | OR (rs10506626, allele A, ADD, Imputed, atorvastatin vs pravastatin): 0.7544 | OR (rs10506626, allele A, DOM, Imputed): 0.6807 | OR (rs10506626, allele A, DOM, Imputed, atorvastatin vs pravastatin): 0.6807 | OR (rs10511071, allele C, DOM, Imputed): 0.8286 | OR (rs10511072, allele G, DOM, Imputed): 0.8286 | OR (rs10511199, allele C, ADD, Imputed): 1.021 | OR (rs10517918, allele G, REC, Imputed, atorvastatin vs pravastatin): 0.972 | OR (rs10517924, allele A, REC, Imputed, atorvastatin vs pravastatin): 1.079 | OR (rs10519362, allele G, DOM, Imputed, atorvastatin vs pravastatin): 1.656 | OR (rs10520072, allele T, DOM, Imputed): 0.5934 | OR (rs10520072, allele T, DOM, Imputed, atorvastatin vs pravastatin): 0.5934 | OR (rs10733846, allele G, ADD, Imputed): 0.8325 | OR (rs10733846, allele G, DOM, Imputed): 0.7557 | OR (rs10737390, allele T, DOM, Imputed): 1.128 | OR (rs10737390, allele T, DOM, Imputed, atorvastatin vs pravastatin): 1.128 | OR (rs10742851, allele T, REC, Imputed, atorvastatin vs pravastatin): 1.673 | OR (rs10743685, allele G, REC, Imputed, atorvastatin vs pravastatin): 1.446 | OR (rs10749293, allele G, DOM, Imputed): 1.442 | OR (rs10749293, allele G, DOM, Imputed, atorvastatin vs pravastatin): 1.442 | OR (rs10749294, allele A, DOM, Imputed, atorvastatin vs pravastatin): 1.341 | OR (rs10752159, allele G, DOM, Imputed): 1.434 | OR (rs10753760, allele T, ADD, Imputed): 0.9252 | OR (rs10753760, allele T, ADD, Imputed, atorvastatin vs pravastatin): 0.9252 | OR (rs10757887, allele C, DOM, Imputed): 1.073 | OR (rs10758326, allele A, ADD, Imputed): 0.6884 | OR (rs10758326, allele A, REC, Imputed): 0.3854 | OR (rs10762236, allele G, ADD, Genotyped): 0.93 | OR (rs10772362, allele T, ADD, Imputed, atorvastatin vs pravastatin): 0.8356 | OR (rs10784891, allele C, ADD, Imputed): 0.7472
